Test results from PubChem BioAssay AID1347075 (National Center for Advancing Translational Sciences (NCATS), 2019).
Values joined by “and” are separate entries in the source; they are usually repeats but may differ in a detail not shown here. Identical values can stand only once. Screen size: about 400,000 compounds; about 5,500 (1.4%) were called active. Inconclusive means that the source gave no clear call. Such entries were picked first, then a sample of the others. Calls follow the shape of the dose curve; as a rule, active = well fitted cell-killing curve with a large enough effect; inconclusive = small, poorly fitted or top-dose-only effect, or effect the other way; inactive = flat fitted curve, though single readings scatter. Where the call is inconclusive, the potency comes from a doubtful curve fit.

Experiment: qHTS assay for MDR1-selective chemotherapeutics: Primary screen using the parental adenocarcinoma cell KB-3-1; also: nearly all actives have a fitted effect of over 60% in size
Conditions: KB-3-1 viability, CellTiter-Glo ATP luminescence, 72 h; activity change, negative = cytotoxic: at 46.1 µM (top of the series)
Method in brief: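 Using CellTiter-Glo luminescence, growth of non-resistant KB-3-1 adenocarcinoma cells is assessed 72 h after pin-tool compound addition at 37 °C. Normalized responses across the concentration series yield fitted curves.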
% is scaled to controls: 0 for no effect and ±100 for the full control effect; potency is read from the fitted curve at half-maximal effect.

SMILES	activity change, negative = cytotoxic	Potency
O=C(Cn1nc(-c2ccco2)ccc1=O)Nc1cc(Cl)ccc1Cl	inconclusive: 14.2%	
CCOc1ccc(CCN2C(=S)N([C@@H](Cc3ccc(O)cc3)CN3CCC[C@@H]3CN3C(=S)NC[C@@H]3CC(C)C)C[C@@H]2CC(C)C)cc1		inconclusive: 20.6 µM [cytotoxic, single point]
O=C(/C=C/c1cccs1)Nc1cccnc1		inconclusive: 5.8 µM [rising, partial curve, poor fit]
Cc1onc(-c2ccccc2)c1C(=O)O/N=C(\N)c1ccc([N+](=O)[O-])o1		inconclusive: 23.1 µM [cytotoxic, partial curve, poor fit]
O=S(=O)(NCC1CCN(c2ccc(S(=O)(=O)N3CCOCC3)cc2)CC1)c1ccccc1		inconclusive: 16.4 µM [cytotoxic, single point]
Cc1ccc(-c2nc(NC(=O)c3nn(C)cc3[N+](=O)[O-])sc2C)cc1		active: 4.61 µM
COc1ccccc1Cn1c(=S)[nH]c2ccc(F)cc2c1=O		inactive
Cc1ccc(CNS(=O)(=O)c2ccc3[nH]c4c(c3c2)CCCCC4)cc1		inconclusive: 20.6 µM [cytotoxic, single point]
Cc1ccccc1OCC(=O)Nc1ccccc1N1CCCCC1		inconclusive: 18.4 µM [cytotoxic, single point]
Nc1c(-c2ccc3c(c2)OCCO3)oc2ccccc2c1=O		inconclusive: 29.1 µM [cytotoxic, partial curve, poor fit]
Cc1ccc(C)c(Nc2c([N+](=O)[O-])cc(C(=O)N3CC(=O)Nc4ccccc43)cc2[N+](=O)[O-])c1		inconclusive: 20.6 µM [cytotoxic, single point]
CCn1c(C)nc2cc(S(=O)(=O)C(F)(F)C(F)C(F)(F)F)ccc21 (configuration not stated)		inconclusive: 23.1 µM [cytotoxic, single point]
Cc1cc(-c2ccc(C)c(S(=O)(=O)N3CCN(c4ccc(F)cc4)CC3)c2)on1		inconclusive: 9.2 µM [cytotoxic, partial curve]
Cc1ccc(C)n1-n1c(C)nc2sc(-c3ccccc3)cc2c1=O		inconclusive: 29.1 µM [cytotoxic, single point]
Cc1cc(N2C(=O)C(O)=C(C(=O)c3ccco3)C2c2ccc(Cl)cc2)no1 (configuration not stated)		inactive
COc1ccc(N=C2SC(CC(=O)Nc3cccc(Cl)c3)C(=O)N2Cc2ccco2)cc1 (configuration not stated)		inconclusive: 29.1 µM [cytotoxic, single point]
O=C(COc1ccc([N+](=O)[O-])cc1)Nc1ccc2c(c1)nc1n2CCOC1		inconclusive: 0.0092 µM [rising, full curve, poor fit]
CCN(c1cccc(C)c1)S(=O)(=O)c1ccc(-c2cc(C)no2)s1		active: 4.61 µM
Cc1nn2c(=O)cc(COC(=O)c3ccc(NC(=O)C(C)(C)C)cc3)nc2s1		inconclusive: 29.1 µM [cytotoxic, single point]
COc1ccc(NC(C)C(=O)Nc2cccc(S(=O)(=O)N3CCOCC3)c2)cc1OC (configuration not stated)		inconclusive: 11.6 µM [cytotoxic, partial curve]
CCS(=O)(=O)N1CCC(c2nc(-c3ccc(C)cc3)no2)CC1		inconclusive: 29.1 µM [cytotoxic, single point]
Cc1cc(C(=O)CSc2nc(N)cc(=O)[nH]2)c(C)n1-c1cccc(F)c1		active: 5.8 µM
O=C(Cn1c(=O)oc2cc(S(=O)(=O)N3CCCC3)ccc21)NCc1ccc(Cl)cc1		inconclusive: 0.517 µM [cytotoxic, full curve, poor fit]

SMILES	activity change, negative = cytotoxic	Potency
CCOc1c(Br)cc(CNc2ccc(N3CCN(C(C)=O)CC3)cc2)cc1OC		inactive
O=[N+]([O-])c1cccnc1NCCNc1ncc(C(F)(F)F)cc1Cl		inconclusive: 18.4 µM [cytotoxic, single point]
O=C(CCC(=O)Nc1ccc(F)cc1)N/N=C/c1cc([N+](=O)[O-])ccc1O		inactive
C[n+]1cn(Cc2cc(Cl)ccc2OC(F)F)c2ccccc21		inconclusive: 20.6 µM [cytotoxic, single point]
Cn1c2ccccc2c(=O)c2c(=O)n(-c3ccc(F)cc3)c(-c3cccs3)nc21		inconclusive: 29.1 µM [rising, single point]
Cc1ccc(NC(=O)COc2ccc(-c3nn(C)c(=O)c4ccccc34)cc2)cc1		inconclusive: 16.4 µM [cytotoxic, single point]
O=c1cnnc(N/N=C/c2cccs2)[nH]1		inconclusive: 18.4 µM [cytotoxic, single point]
CCOc1cc2[nH]c(=S)n(CC3CCCN3CC)c(=O)c2cc1OCC (configuration not stated)		inactive
CN(C)c1ccc(CNC(=O)C2CCCN(S(=O)(=O)c3ccc4c(ccn4C)c3)C2)cc1 (configuration not stated)		inconclusive: 29.1 µM [cytotoxic, single point]
Cc1cccc(-n2c(C)nc3cc(C(=O)NCCN4CCOCC4)ccc32)c1		inactive
COc1ccccc1-c1cccc([C@@H]2C[C@H]3[C@H](CON3C)CN2C)c1		inactive
Cn1cc(CNCc2ccccc2OCC(O)CN2CCc3ccccc3C2)cn1 (configuration not stated)		inconclusive: 29.1 µM [cytotoxic, single point]
COCC(=O)N1CCC(Oc2ccc(C(=O)NCCc3ccncc3)cc2)CC1		inactive
COc1cc(NC(=O)c2ccccc2)c(OC)cc1NC(=O)CSc1[nH]c(=O)cc(C)c1C#N		inconclusive: 4.61 µM [cytotoxic, full curve, poor fit]
COc1ccc(Cl)cc1NC(=O)C(C)N1CCc2ccccc21 (configuration not stated)		inconclusive: 20.6 µM [cytotoxic, single point]
C(#Cc1ccccc1)C[N+]1(CC#Cc2ccccc2)CCCC1		inconclusive: 18.4 µM [cytotoxic, single point]
CCCCn1c(NC(=O)c2ccccc2Cl)c(C#N)c2nc3ccccc3nc21		inconclusive: 14.6 µM [cytotoxic, partial curve, poor fit]
Cc1csc(NC(=O)CSc2ncnc3c2cnn3-c2ccccc2Cl)n1		inconclusive: 16.4 µM [cytotoxic, single point]
Cc1cc(C)cc(-n2c(C)cc(/C=N/NC(=O)c3cccc([N+](=O)[O-])c3C)c2C)c1		inconclusive: 29.1 µM [cytotoxic, single point]
Cc1cnc(C(=O)Nc2cccc3ncccc23)cn1		inactive
CCOc1ccc(NC(=O)CSC2=Nc3ccccc3C3=NC(CCC(=O)NCc4cccs4)C(=O)N23)cc1 (configuration not stated)		inactive
Cc1ccc(CNC(=O)CCS(=O)(=O)c2ccc3c(c2)CC(C)N3C(=O)C2CC2)cc1 (configuration not stated)		active: 20.6 µM
CCOc1cc(S(=O)(=O)Nc2ccc(Cl)cn2)ccc1F	inconclusive: -78%	

SMILES	activity change, negative = cytotoxic	Potency
C=CCNc1nc(NCc2ccccc2)c(C#N)c2c1CN(C)CC2		inconclusive: 29.1 µM [cytotoxic, single point]
CCN1CCN(c2ncc(C(=O)N3CCN(c4ccccc4OC)CC3)c3ccccc23)CC1		inactive
COc1ccc(C(C)=O)cc1CSc1nnc(Nc2ccc(C)cc2)s1		inconclusive: 18.4 µM [cytotoxic, single point]
CC(C)(C)c1ccc(OCC(=O)N/N=C/c2cc(Br)ccc2OC(=O)c2ccco2)cc1		inconclusive: 14.6 µM [cytotoxic, partial curve, poor fit]
CCC/C(=N\NC(=O)c1ccco1)c1ccc(Cl)s1		inactive
COc1cc(CNCCSc2nnnn2C)ccc1OCc1ccc(F)cc1		inconclusive: 29.1 µM [cytotoxic, single point]
CCN1CCN(C(=S)c2ccc(SC)cc2)CC1		inactive
Cc1cc(C)n(CC(O)COc2ccc3ccccc3c2)n1 (configuration not stated)		inactive
Cc1cccc(-n2c(C)nc3c(cnn3-c3ccc(F)cc3)c2=O)c1		inactive
O=C(Nc1ccc(Cl)cc1)Nc1nnc(CSCc2ccccc2Cl)s1		inconclusive: 29.1 µM [cytotoxic, single point]
COc1cccc(NC(=O)c2ccc3c(c2)N(C)CCS3)c1		inconclusive: 18.4 µM [cytotoxic, single point]
CC(Sc1nc(N)cc(=O)[nH]1)C(=O)Nc1nc2c(s1)CCCC2 (configuration not stated)		inconclusive: 20.6 µM [rising, single point]
O=C(Nc1nc2c(s1)CCCC2)c1ccc(Br)o1		inactive
NS(=O)(=O)c1ccc(CCN2C(=O)/C(=C\c3ccc(Cl)cc3)SC2=S)cc1		inconclusive: 23.1 µM [cytotoxic, single point]
COc1cc(NC(=O)c2cnc(N)o2)cc(C(=O)Nc2cccc(C(F)(F)F)c2)c1		inconclusive: 29.1 µM [cytotoxic, single point] and inconclusive: 20.6 µM [cytotoxic, single point]
CCOC(=O)C(C)Oc1cccc2c(=O)n(CC(=O)Nc3cccc(OC)c3)ccc12 (configuration not stated)		inconclusive: 11.6 µM [rising, partial curve, poor fit]
CN(C)c1cc[n+](CC(=O)Nc2ccc(Cl)c([N+](=O)[O-])c2)cc1		active: 6.51 µM
Cc1c(O)c2c3c(cccc3c1O)C(=O)N(c1ccccc1)C2=O		inconclusive: 16.4 µM [cytotoxic, single point]
CN(C)CCNc1nccc(N2CCN(C)CC2)n1		inconclusive: 7.31 µM [rising, single point]
CCC(C)(C)NC(=O)C(c1cccc(OC)c1OC)N(C(=O)CCC(=O)Nc1cc(C)on1)c1ccc2c(c1)OCCO2 (configuration not stated)		inactive
COc1cc(OC)c(N(C)S(=O)(=O)c2cccc(C(=O)NC3=NCCS3)c2)cc1Cl		inconclusive: 29.1 µM [cytotoxic, single point]
